Reference: article PMC7819943, “Rice protein-binding microarrays: a tool to detect cis-acting elements near promoter regions in rice”
The list shows a part of the results.

By UniProt entry, the sequences of proteins in these tests, tags left out.
UniProt Q0JBA9, entry or part of it: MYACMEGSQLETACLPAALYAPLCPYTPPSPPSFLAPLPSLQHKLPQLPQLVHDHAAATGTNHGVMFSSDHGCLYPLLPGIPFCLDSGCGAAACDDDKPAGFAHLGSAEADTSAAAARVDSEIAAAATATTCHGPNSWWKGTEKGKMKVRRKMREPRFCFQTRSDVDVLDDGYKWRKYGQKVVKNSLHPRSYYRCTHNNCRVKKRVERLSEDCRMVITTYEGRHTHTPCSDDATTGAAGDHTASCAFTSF

Biological target: OsWRKY34 (Oryza sativa, UniProt Q0JBA9 1-250)
Assay: protein-binding microarray (RPBM); PBS, 2% BSA, 51.3 ng/ul salmon testes DNA, 50 uM zinc acetate, 200 nM TF, 25 C, 1 h; high values mean tight binding
Conditions: protein: recombinant; tags: N-terminal polyhistidine and DsRed monomer fusion (pET32a); label: CyDye5-dUTP incorporated in the synthesized complementary strand; 3' TTTTT single-stranded linker to array surface; dsDNA, one strand shown
Outline: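 Transcription factors were made in E. coli BL21-CodonPlus as N-terminal fusions to a polyhistidine tag and DsRed, then purified on Ni–NTA. After primer extension with Cy5-dUTP and blocking with 2% BSA, a custom Agilent array was exposed for 1 h at 25 °C to 200 nM protein in PBS, 2% BSA, salmon testes DNA and 50 µM zinc acetate. Washed arrays were scanned on an Axon 4000B, and the binding signal is per-feature fluorescence intensity in arbitrary units.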

Compared with “CATTCGCCAATTCGTCGCCGCCGCCCAACACGCTACGCCCCGGAGTCACCTAGTGCAG”, “ATTCGCCAGCCACACCTCTCTCCATCCTCTCGTTCTCTCTCGGAGTCACCTAGTGCAG” is higher in binding signal: 9240 fluorescence intensity (a.u.) for the first, 12400 fluorescence intensity (a.u.) for the second.

Compared with “CTCTTTCCGACCCCACCTGTCAGTGTAACCCACTCTCACTCGGAGTCACCTAGTGCAG”, “AAGAATCTGCCGGCAACCTTAACCACCCTCTCCTTCCTTGCGGAGTCACCTAGTGCAG” is lower in binding signal: 8490 fluorescence intensity (a.u.) for the first, 8220 fluorescence intensity (a.u.) for the second.

Going from “GGGGACGGGGCGGCCGAAGCGGTTGAAGTGGACGTCGGGGCGGAGTCACCTAGTGCAG” to “TCGATCGTTGACCACCGACATCAGTAGAATCCGGAGGGCTCGGAGTCACCTAGTGCAG”, the binding signal falls from 12100 fluorescence intensity (a.u.) to 11900 fluorescence intensity (a.u.).

First: AGACAAACGGTTAAACATATTTGAAAAGTCAACGGCGTCACGGAGTCACCTAGTGCAG
Second: TGTCGGCGAACTTTCATATGTATATGCATGTCATATATTTCGGAGTCACCTAGTGCAG
The binding signal of the first is lower: 8880 fluorescence intensity (a.u.) for the first, 9060 fluorescence intensity (a.u.) for the second.

Compared with “TCTTCGATTGGCGTTTTTAATTTGTTGGTGTCAAGTCTTACGGAGTCACCTAGTGCAG”, “TCAGGTACCTCTTTTGGCAGTCATTTGCATTCCTTCTTGTCGGAGTCACCTAGTGCAG” is higher in binding signal: 10600 fluorescence intensity (a.u.) for the first, 15700 fluorescence intensity (a.u.) for the second.

Going from “CCGGGTTCCTGTTTTTTCAACGCATGCACACTTTAATCTACGGAGTCACCTAGTGCAG” to “CCTGATATCTCCCATCGTTCCCGTCCCGGCGTTGACGGGGCGGAGTCACCTAGTGCAG”, the binding signal falls from 9290 fluorescence intensity (a.u.) to 8600 fluorescence intensity (a.u.).

Compared with “AGAGACCTCTATTGCTGTGATATTCTGTCTTCCTGTGATACGGAGTCACCTAGTGCAG”, “TTTTCCCAATTCAATCCTTGTAGGATGCTCGATTACATCACGGAGTCACCTAGTGCAG” is higher in binding signal: 8060 fluorescence intensity (a.u.) for the first, 8340 fluorescence intensity (a.u.) for the second.

Going from “ATAGTACGAATGGTTAGCCCAAAAGTCAGTGTCTTCATTCCGGAGTCACCTAGTGCAG” to “ATGTGTTAGGGTTTAATCTTTCGGTTTGGATGTTTCTATCCGGAGTCACCTAGTGCAG”, the binding signal falls from 10300 fluorescence intensity (a.u.) to 8720 fluorescence intensity (a.u.).

First: CTTCGCTCCACCCGTCAACGTCTGTTTGTTGTATTCCCCTCGGAGTCACCTAGTGCAG
Second: CCTCTCTCGCTCATTTTCGCCGCCGCCACCACCGACGATGCGGAGTCACCTAGTGCAG
The binding signal of the first is lower: 10800 fluorescence intensity (a.u.) for the first, 13300 fluorescence intensity (a.u.) for the second.

Going from “CCTCAAACCCCACGAGTTCTCCGTCAGATTCCGCCGCCACCGGAGTCACCTAGTGCAG” to “ATTTGGACCACCACGAATGATTTTTTTTCTCATGCAATCACGGAGTCACCTAGTGCAG”, the binding signal falls from 10700 fluorescence intensity (a.u.) to 9820 fluorescence intensity (a.u.).

First: ATTCTTCGGTTCTTGCTAATTGGTTGTTTGATCTGGAAGACGGAGTCACCTAGTGCAG
Second: CTTTTCTTCTTTTTTCATATCTCCAAGAATCCTTTCACATCGGAGTCACCTAGTGCAG
The binding signal of the first is higher: 8760 fluorescence intensity (a.u.) for the first, 8030 fluorescence intensity (a.u.) for the second.

Going from “AAACTTAATGTTTCACGCTTCATAATTCACAACCTGTCAGCGGAGTCACCTAGTGCAG” to “GTTTGACCACGCCTTGGCCACTTCCGCTACTCCACTCCACCGGAGTCACCTAGTGCAG”, the binding signal rises from 9510 fluorescence intensity (a.u.) to 13100 fluorescence intensity (a.u.).

Going from “GTTGTGGTCGTTAGCAGGCATTGCTTCCTTTAGGGATTTGCGGAGTCACCTAGTGCAG” to “AGGCGGCCGCACCCCGTTCACTTCCTTCTTTCTGGCTGCTCGGAGTCACCTAGTGCAG”, the binding signal falls from 8850 fluorescence intensity (a.u.) to 8560 fluorescence intensity (a.u.).

Compared with “CATGTTTGCCATCTGTTCTGCTTGCTTTATTTGTGGCCTTCGGAGTCACCTAGTGCAG”, “AGTTAGTGTGCAGTACTTGCCTTCTCGAGTTCATGGCTTCCGGAGTCACCTAGTGCAG” is lower in binding signal: 13600 fluorescence intensity (a.u.) for the first, 8740 fluorescence intensity (a.u.) for the second.

Going from “CTCAGCCACCTCGCCTATATATACATCCCATGCCTAGCTTCGGAGTCACCTAGTGCAG” to “AGTTCTTGTCACATGCTGCAATTGTTGGGTTTATGGGAGGCGGAGTCACCTAGTGCAG”, the binding signal falls from 11100 fluorescence intensity (a.u.) to 8410 fluorescence intensity (a.u.).

Going from “TTCCCCATCCACACCTCACGGGAAGCTGTCCCTTCTCCTCCGGAGTCACCTAGTGCAG” to “AGGATTTTTTTTTCTGCATGTGTTTTTTGTTATCTTTACACGGAGTCACCTAGTGCAG”, the binding signal falls from 10700 fluorescence intensity (a.u.) to 9660 fluorescence intensity (a.u.).

First: TTACACATTTCTTTAAAACTTGTATACACTTCACTTGTTTCGGAGTCACCTAGTGCAG
Second: TTTAAGCACAACTTTTCGTTTTTTATATTTGCACAAGTTTCGGAGTCACCTAGTGCAG
The binding signal of the first is higher: 9800 fluorescence intensity (a.u.) for the first, 8940 fluorescence intensity (a.u.) for the second.

Compared with “TTTTTATGTTTTTCCTGCGGTCCAATCAAACGGCCATTCACGGAGTCACCTAGTGCAG”, “GGGAGGCGGGGAGTTGCTGCCAACACCAGGGGAGGGAAGCCGGAGTCACCTAGTGCAG” is higher in binding signal: 12000 fluorescence intensity (a.u.) for the first, 12100 fluorescence intensity (a.u.) for the second.

Going from “CAAGCTTTAGCCTCCGGCCCGTGCTTCTCCAACTCGCTCTCGGAGTCACCTAGTGCAG” to “TATACACCACGTTTGCTGGCTTGGCTTCCTTCCACACTCCCGGAGTCACCTAGTGCAG”, the binding signal falls from 8660 fluorescence intensity (a.u.) to 8160 fluorescence intensity (a.u.).

Going from “TCCGGGACTGGTTTCCTCTCCCTTTTTGTTGGTCTCTGTTCGGAGTCACCTAGTGCAG” to “ACCTCCACGCACCACCGCATCTCCGCCTAGGGTTTCCTCCCGGAGTCACCTAGTGCAG”, the binding signal falls from 10600 fluorescence intensity (a.u.) to 8870 fluorescence intensity (a.u.).

First: GCTCTCCTGCCCTGCCTCGTCTCCTCCGCTCAGCTCAGCTCGGAGTCACCTAGTGCAG
Second: TTTTTTGCTTTTTCATGAATTCTTCAGACATGATGTAAACCGGAGTCACCTAGTGCAG
The binding signal of the first is higher: 9580 fluorescence intensity (a.u.) for the first, 8500 fluorescence intensity (a.u.) for the second.
